Assay results reported in patent publication US20080108632A1, “HCV PROTEASE INHIBITORS” (TaiGen Biotechnology Co., Ltd., priority 2006, published 2008).
Some results were stated once for a whole list of compounds, not compound by compound. For at least one compound, name, drawing or mass did not settle the structure.

Molecular target: T1, NS3/4A protease (Hepatitis C virus genotype 1a, UniProt P27958)
T1 construct: N-terminal His6-tagged-NS4A (21-32)-GSGS-NS3(3-181); made in house; host or cells: E. coli BL21 (DE3) pLysS
Test: Inhibition of NS3/4A protease, HPLC Microbore assay with substrate RET S1
Assay type: biochemical, HCV
Settings: 2 nM NS3/4A protease, substrate RET S1, 30 minutes at 37° C.

Compound | inhibition of NS3/4A protease activity
CCCC(NC(=O)[C@@H]1CC2(CN1C(=O)[C@@H](NC(=O)[C@@H](NC(=O)c1cnccn1)C1CCCCC1)C(C)(C)C)N(CC)C(=O)[C@H]1CCCN12)C(=O)C(=O)NC1CC1 (stereo partly drawn) [Compound 1, (5S,7a′R)-1-((S)-2-((S)-2-cyclohexyl-2-(pyrazine-2-carboxamido)acetamido)-3,3-dimethylbutanoyl)-N-(1-(cyclopropylamino)-1,2-dioxohexan-3-yl)-2′-ethyl-1′-oxohexahydrospiro[pyrrolidine-3,3′-pyrrolo[1,2-c]imidazole]-5-carboxamide] | exhibited inhibition of NS3/4A protease activity
CCCC(NC(=O)[C@@H]1CC2(CN1C(=O)[C@@H](NC(=O)[C@@H](NC(=O)c1cnccn1)C1CCCCC1)C(C)(C)C)N(CC)CC(=O)N2CC)C(=O)C(=O)NC1CC1 (stereo partly drawn) [Compound 2, (8S)-7-((S)-2-((S)-2-cyclohexyl-2-(pyrazine-2-carboxamido)acetamido)-3,3-dimethylbutanoyl)-N-(1-(cyclopropylamino)-1,2-dioxohexan-3-yl)-1,4-diethyl-2-oxo-1,4,7-triazaspiro[4.4]nonane-8-carboxamide] | exhibited inhibition of NS3/4A protease activity
CCC[C@H](NC(=O)[C@@H]1CC2(CN1C(=O)[C@@H](NC(=O)[C@@H](NC(=O)c1cnccn1)C1CCCCC1)C(C)(C)C)N(CC)CC(=O)N2CC)C(=O)C(=O)NC1CC1 (stereo partly drawn) [Compound 3, (8S)-7-((S)-2-((S)-2-cyclohexyl-2-(pyrazine-2-carboxamido)acetamido)-3,3-dimethylbutanoyl)-N-((S)-1-(cyclopropylamino)-1,2-dioxohexan-3-yl)-1,4-diethyl-2-oxo-1,4,7-triazaspiro[4.4]nonane-8-carboxamide] | exhibited inhibition of NS3/4A protease activity
CCCC(NC(=O)[C@@H]1CC2(CN1C(=O)[C@@H](NC(=O)[C@@H](NC(=O)c1cnccn1)C1CCCCC1)C(C)(C)C)N(C)CC(=O)N2CC)C(=O)C(=O)NC1CC1 (stereo partly drawn) [Compound 4, (8S)-7-((S)-2-((S)-2-cyclohexyl-2-(pyrazine-2-carboxamido)acetamido)-3,3-dimethylbutanoyl)-N-(1-(cyclopropylamino)-1,2-dioxohexan-3-yl)-1-ethyl-4-methyl-2oxo-1,4,7-triazaspiro[4.4]nonane-8-carboxamide] | exhibited inhibition of NS3/4A protease activity
CCN1C(=O)CN(C)C12C[C@@H](C(=O)NC(CC1CC1)C(=O)C(=O)NC1CC1)N(C(=O)[C@@H](NC(=O)[C@@H](NC(=O)c1cnccn1)C1CCCCC1)C(C)(C)C)C2 (stereo partly drawn) [Compound 5, (8S)-7-((S)-2-((S)-2-cyclohexyl-2-(pyrazine-2-carboxamido)acetamido)-3,3-dimethylbutanoyl)-N-(1-cyclopropyl-4-(cyclopropylamino)-3,4-dioxobutan-2-yl)-1-ethyl-4-methyl-2-oxo-1,4,7-triazaspiro[4.4]nonane-8-carboxamide] | exhibited inhibition of NS3/4A protease activity
CCCC(NC(=O)[C@@H]1CC2(CN1C(=O)[C@@H](NC(=O)[C@@H](NC(=O)c1cnccn1)C1CCCCC1)C(C)(C)C)N(C)CC(=O)N2CC)C(=O)C(=O)N[C@@H](C)c1ccccc1 (stereo partly drawn) [Compound 6, (8S)-7-((S)-2-((S)-2-cyclohexyl-2-(pyrazine-2-carboxamido)acetamido)-3,3-dimethylbutanoyl)-N-(1,2-dioxo-1-((S)-1-phenylethylamino)hexan-3-yl)-1-ethyl-4-methyl-2-oxo-1,4,7-triazaspiro[4.4]nonane-8-carboxamide] | exhibited inhibition of NS3/4A protease activity
CCCC(NC(=O)[C@@H]1CC2(CN1C(=O)[C@@H](NC(=O)OC(C)(C)C)C(C)(C)C)N(C)CC(=O)N2CC)C(=O)C(=O)NCC(=O)NC(C(=O)N(C)C)c1ccccc1 (stereo partly drawn) [Compound 7, tert-butyl (2S)-1-((8S)-8-(1-(2-(2-(dimethylamino)-2-oxo-1-phenylethylamino)-2-oxoethylamino)-1,2-dioxohexan-3-ylcarbamoyl)-1-ethyl-4-methyl-2-oxo-1,4,7-triazaspiro[4.4]nonan-7-yl)-3,3-dimethyl-1-oxobutan-2-ylcarbamate] | exhibited inhibition of NS3/4A protease activity
CCCC(NC(=O)[C@@H]1CC2(CN1C(=O)[C@@H](NC(=O)OC(C)(C)C)C(C)(C)C)NC(=O)C1CCCN12)C(=O)C(=O)NC1CC1 (stereo partly drawn) [Compound 8, tert-butyl (2S)-1-((5S,7a′R)-5-(1-(cycloproplamino)-1,2-dioxohexan-3-ylcarbamoyl)-1′-oxohexahydrospiro[pyrrolidine-3,3′-pyrrolo[1,2-c]imidazole]-1-yl)-3,3-dimethyl-1-oxobutan-2-ylcarbamate] | exhibited inhibition of NS3/4A protease activity
CCCC(NC(=O)[C@@H]1CC2(CN1C(=O)[C@@H](NC(=O)[C@@H](NC(=O)c1cnccn1)C1CCCCC1)C(C)(C)C)NC(=O)[C@H]1CCCN12)C(=O)C(=O)NC1CC1 (stereo partly drawn) [Compound 9, (5S,7a′R)-1-((S)-2-((S)-2-cyclohexyl-2-(pyrazine-2-carboxamido)acetamido)-3,3-dimethylbutanoyl)-N-(1-(cyclopropylamino)-1,2-dioxohexan-3-yl)-1′-oxohexahydrospiro[pyrrolidine-3,3′-pyrrolo[1,2-c]imidazole]-5-carboxamid] | exhibited inhibition of NS3/4A protease activity
CCCC(NC(=O)[C@@H]1CC2(CN1C(=O)[C@@H](NC(=O)NC(=O)NC1CCCCC1)C(C)(C)C)NC(=O)[C@H]1CCCN12)C(=O)C(=O)NC1CC1 (stereo partly drawn) [Compound 10, (5S,7a′R)-1-((S)-2-(3-(cyclohexylcarbamoyl)ureido)-3,3-dimethylbutanoyl)-N-(1-(cyclopoproplamino)-1,2-dioxohexan-3-yl)-1′-oxohexahydrospiro[pyrrolidine-3,3′-pyrrolo[1,2-c]imidazole]-5-carboxamide] | exhibited inhibition of NS3/4A protease activity
CCCC(NC(=O)[C@@H]1CC2(CN1C(=O)[C@@H](NC(=O)NC1CC1)C(C)(C)C)NC(=O)[C@H]1CCCN12)C(=O)C(=O)NC1CC1 (stereo partly drawn) [Compound 11, (5S,7a′R)—N-(1-(cyclopropylamino)-1,2-dioxohexan-3-yl)-1-((S)-2-(3-cyclopropylureido)-3,3-dimethylbutanoyl)-1′-oxohexahydrospiro[pyrrolidine-3,3′-pyrrolo[1,2-c]imidazole]-5-carboxamide] | exhibited inhibition of NS3/4A protease activity
CCCC(NC(=O)[C@@H]1CC2(CN1C(=O)[C@@H](NC(=O)[C@@H](NC(=O)NC(C)(C)C)C1CCCCC1)C(C)(C)C)N(CC)CC(=O)N2CC)C(=O)C(=O)NC1CC1 (stereo partly drawn) [Compound 12, (8S)-7-((S)-2-((S)-2-(3-tert-butylureido)-2-cyclohexylacetamido)-3,3-dimethylbutanoyl)-N-(1-(cyclopropylamino)-1,2-dioxohexan-3-yl)-1,4-diethyl-2-oxo-1,4,7-triazaspiro[4.4]nonane-8-carboxamide] | exhibited inhibition of NS3/4A protease activity
CCCC(NC(=O)[C@@H]1CC2(CN1C(=O)[C@@H](NC(=O)[C@@H](NC(=O)c1cnccn1)C1CCCCC1)C(C)(C)C)N(Cc1ccccc1)C(=O)[C@H]1CCCN12)C(=O)C(=O)NC1CC1 (stereo partly drawn) [Compound 13, (5S,7a′R)-2′-benzyl-1-((S)-2-((S)-2-cyclohexyl-2-(pyrazine-2-carboxamido)acetamido)-3,3-dimethylbutanoyl)-N-(1-(cyclopropylamino)-1,2-dioxohexan-3-yl)-1′-oxohexahydrospiro[pyrrolidine-3,3′-pyrrolo[1,2-c]imidazole]-5-carboxamide] | exhibited inhibition of NS3/4A protease activity
CCCC(NC(=O)[C@@H]1CC2(CN1C(=O)[C@@H](NC(=O)[C@@H](NC(=O)c1cnccn1)C1CCCCC1)C(C)(C)C)N(C)C(=O)[C@H]1CCCN12)C(=O)C(=O)NC1CC1 (stereo partly drawn) [Compound 15, (5S,7a′R)-1-((S)-2-((S)-2-cyclohexyl-2-(pyrazine-2-carboxamido)acetamido)-3,3-dimethylbutanoyl)-N-(1-(cyclopropylamino)-1,2-dioxohexan-3-yl)-2′-methyl-1′-oxohexahydrospiro[pyrrolidine-3,3′-pyrrolo[1,2-c]imidazole]-5-carboxamide] | exhibited inhibition of NS3/4A protease activity
CCCC(NC(=O)[C@@H]1CC2(CN1C(=O)[C@@H](NC(=O)[C@@H](NC(=O)c1cnccn1)C1CCCCC1)C(C)(C)C)N(C)C(=O)[C@H]1CCCN12)C(=O)C(=O)NC(C)C (stereo partly drawn) [Compound 16, (5S,7a′R)-1-((S)-2-((S)-2-cyclohexyl-2-(pyrazine-2-carboxamido)acetamido)-3,3-dimethylbutanoyl)-N-(1-(isopropylamino)-1,2-dioxohexan-3-yl)-2′-methyl-1′-oxohexahydrospiro[pyrrolidine-3,3′-pyrrolo[1,2-c]imidazole]-5-carboxamide] | exhibited inhibition of NS3/4A protease activity
CCCC(NC(=O)[C@@H]1CC2(CN1C(=O)[C@@H](NC(=O)[C@@H](NC(=O)c1cnccn1)C1CCCCC1)C(C)(C)C)N(C)C(=O)C1CCCN12)C(=O)C(=O)N[C@@H](C)c1ccccc1 (stereo partly drawn) [Compound 17, (5S,7a′R)-1-((S)-2-((S)-2-cyclohexyl-2-(pyrazine-2-carboxamido)acetamido)-3,3-dimethylbutanoyl)-N-(1,2-dioxo-1-((S)-1-phenlethylamino)hexan-3-yl)-2′-methyl-1′-oxohexahydrospiro[pyrrolidine-3,3′-pyrrolo[1,2-c]imidazole]-5-carboxamide] | exhibited inhibition of NS3/4A protease activity
